Results are given in words; binding and its absence hold for the method and conditions named. In cells and extracts the contact can be indirect. Some entries that bind do so weakly or less than the wild type.
Biological target: EZH2 of mESCs (mouse (endogenous in mESCs)) (UniProt Q61188)
Assay: co-IP; anti-EZH2 antibody captures re-expressed WT and mutant SUZ12 from mESCs; bound and unbound fractions blotted for SUZ12 (prey) and EZH2 (bait); rabbit IgG as negative control

Sequences of proteins named here, by UniProt entry; tags and fusion partners are left off. A change or cut given only in a name is not applied to a line headed by its entry.
UniProt Q61188: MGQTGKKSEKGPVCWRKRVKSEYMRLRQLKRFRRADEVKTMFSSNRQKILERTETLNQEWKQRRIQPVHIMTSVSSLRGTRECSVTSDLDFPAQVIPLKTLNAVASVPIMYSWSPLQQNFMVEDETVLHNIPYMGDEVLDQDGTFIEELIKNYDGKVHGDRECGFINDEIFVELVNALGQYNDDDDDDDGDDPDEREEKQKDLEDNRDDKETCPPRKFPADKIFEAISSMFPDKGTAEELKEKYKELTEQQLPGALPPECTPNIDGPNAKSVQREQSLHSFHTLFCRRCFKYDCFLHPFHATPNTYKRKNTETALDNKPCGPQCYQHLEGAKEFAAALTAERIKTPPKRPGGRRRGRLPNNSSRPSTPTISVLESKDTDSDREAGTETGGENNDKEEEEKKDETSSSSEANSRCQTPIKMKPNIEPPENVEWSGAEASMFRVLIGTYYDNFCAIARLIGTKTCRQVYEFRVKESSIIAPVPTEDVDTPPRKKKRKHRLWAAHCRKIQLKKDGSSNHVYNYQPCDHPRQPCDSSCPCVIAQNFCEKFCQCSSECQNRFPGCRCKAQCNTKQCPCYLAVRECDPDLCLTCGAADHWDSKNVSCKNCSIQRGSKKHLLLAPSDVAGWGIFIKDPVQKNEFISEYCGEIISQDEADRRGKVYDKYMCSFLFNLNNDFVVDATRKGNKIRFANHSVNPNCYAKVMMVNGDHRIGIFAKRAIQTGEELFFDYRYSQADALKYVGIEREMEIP
UniProt Q15022: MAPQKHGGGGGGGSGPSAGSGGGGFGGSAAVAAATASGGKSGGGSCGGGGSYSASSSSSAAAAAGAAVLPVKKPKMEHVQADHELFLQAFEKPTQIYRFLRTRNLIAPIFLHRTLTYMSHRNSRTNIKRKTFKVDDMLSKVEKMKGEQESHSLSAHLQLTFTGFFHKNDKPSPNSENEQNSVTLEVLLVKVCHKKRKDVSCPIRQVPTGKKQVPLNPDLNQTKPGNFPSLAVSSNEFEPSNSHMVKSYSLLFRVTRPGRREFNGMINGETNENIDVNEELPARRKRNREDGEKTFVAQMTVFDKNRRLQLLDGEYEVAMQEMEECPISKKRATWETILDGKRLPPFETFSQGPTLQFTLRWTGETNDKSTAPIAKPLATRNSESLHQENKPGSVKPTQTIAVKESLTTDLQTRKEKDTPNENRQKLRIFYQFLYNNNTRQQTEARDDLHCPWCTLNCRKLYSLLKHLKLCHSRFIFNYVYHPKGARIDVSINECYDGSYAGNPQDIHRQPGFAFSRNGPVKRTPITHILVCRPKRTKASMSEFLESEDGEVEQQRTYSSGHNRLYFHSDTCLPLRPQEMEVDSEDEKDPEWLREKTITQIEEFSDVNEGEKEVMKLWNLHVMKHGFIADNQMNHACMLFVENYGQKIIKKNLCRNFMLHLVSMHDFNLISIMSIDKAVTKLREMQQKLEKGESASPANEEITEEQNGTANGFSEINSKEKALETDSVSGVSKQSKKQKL

| binding | Substance |
| --- | --- |
| binds | 3×FLAG-tagged human SUZ12 WT (from UniProt Q15022 1-739) |
| binds | 3×FLAG-tagged human SUZ12 S583A (from UniProt Q15022 1-739) |

— article PMC9645763
